{
  "source": "patent US20260000632A1",
  "about": "“STRUCTURALLY MODIFIED FATTY ACIDS FOR IMPROVING GLYCEMIC CONTROL AND TREATING INFLAMMATORY BOWEL DISEASE” (Northsea Therapeutics B.V., priority 2018, published 2026)",
  "test_system": "ob/ob mice",
  "experiment": "Chronic treatment in ob/ob mice: basal parameters after 4 weeks",
  "assay_type": "in vivo, mouse",
  "conditions": "4 weeks diet admix, Compound A 135, fenofibrate 100, pioglitazone 30 mg/kg bw/d, mean ± SEM",
  "description": "Mice were fed a standard low-fat (7% w/w fat) diet. After 4-weeks, the mice were fasted for 4 hours and the effects of Compound A were assessed. Assessment of the effects of Compound A included basal levels of blood glucose, plasma insulin, HbA1c levels, and homeostatic model assessment of insulin resistance (HOMA-IR). HOMA-IR is an assessment of insulin resistance and is calculated by the following formula: fasting insulin (micro U/L)×fasting glucose […]/22.5.",
  "data": [
    {"smiles": "CC/C=C\\C/C=C\\C/C=C\\C/C=C\\C/C=C\\CCCCOC(CC)C(=O)O", "note": "(centres unmarked) [Compound A, 2-(((5Z,8Z,11Z,14Z,17Z)-icosa-5,8,11,14,17-pentaen-1-yl)oxy)butanoic acid]", "values": [
      {"measurement": "Body weight", "setting": "4 h fast, control 54.5 ± 1.5", "value": "55.0 ± 1.1", "unit": "g"},
      {"measurement": "Food intake", "setting": "control 6.8 ± 0.5", "value": "6.1 ± 0.3", "unit": "g/m/d"}
    ]}
  ]
}
